We go through 13 molecules from patent US20090305962A1 (Amgen, published 2009).

Numbering of substitutions follows the chain as printed.

T1: human IL-6 (human, UniProt P05231 30-212)
T1 construct: the protein used was bought recombinant human IL-6 (R&D Systems), in part biotinylated; also called rhIL-6; hIL-6
T1 sequence: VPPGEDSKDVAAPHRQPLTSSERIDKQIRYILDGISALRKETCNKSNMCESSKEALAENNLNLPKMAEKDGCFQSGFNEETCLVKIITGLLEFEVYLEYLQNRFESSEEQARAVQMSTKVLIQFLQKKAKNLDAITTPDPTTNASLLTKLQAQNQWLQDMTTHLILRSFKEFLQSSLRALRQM

B1: SEQ ID NO 884 (designed binder)
chain: CLSDQFRCGEGQCIPLDWVCDGVSDCGDDSDEEGCPPSTCAPSQFQCGSGYCISQNWVCDGENDCEDGSDEANCAGCVPTCPADEFRCRDGRCIPRAWRCDGVNDCGDKSDEEDCTENT
B2: SEQ ID NO 870 (designed binder)
chain: CLPDQFRCGNGQCTPLDWVCDGVNDCPDDSDEEGCPPRTCAPSQFQCGSGYCIPQRWVCDGENDCEDGSDEANCAGSVPTCPSGEFQCSNGRCIPWAWRCDGVNDCADNSDEEDCTEPP
B3: SEQ ID NO 874 (designed binder)
chain: CLAHQFLCGNGQCLPLDWVCDGVTDCPDDSDEVGCPPRTCAPSHFQCGSGYCISQSWVCDGEYDCEDGSDEASCAGSVPSCPSDEFQCRNGRCIPRPWRCDGVNDCADNSDEEDCTEHT
B4: SEQ ID NO 902 (designed binder)
chain: CRPDQFRCDNGHCIQLDWVCDGVNDCQDDSDEDGCPPRTCAQSQFQCGSGYCISQSWVCDGENDCEDGSDEANCAGSVPTCPSDEFRCRNGRCIPRAWRCDGINDCEDHSDEEDCKAHT
B5: SEQ ID NO 877 (designed binder)
chain: CQANEFTCSSGNCLSPALLCDGVDDCGDNSDEAYCASPAPTCLPSQFQCGSGYCISQRWVCDGENDCEDSSDEANCAGSVPTCQPGEFTCESGRCLPLRWLCDGEDDCVDSSDEASCQPPT
B6: SEQ ID NO 878 (designed binder)
chain: B5 chain
B7: SEQ ID NO 921 (designed binder)
chain: CLRDQFRCGNGQCIPLDWACDGINDCPDDSDEGGCPPRMCAPSQFQCGSGYCIPLGWVCDGENDCEDGSDEANCAGSEPTCPSGEFRCRNGRCIPRAWLCDGVNDCADNSDEEDCTGHT
B8: SEQ ID NO 856 (designed binder)
chain: CLPDQFRCGNGQCMPLDWVCDGVYDCPDDSDEEGCPPRTCAQSKFQCGSGYCISQRWVCDGEYDCEDGSDEANCADSVPTCPSDEFRCRNGRCIPRGWRCDGVNDCADSSDEEDCTENP
B9: SEQ ID NO 865 (designed binder)
chain: CPSDEFRCGNGQCIPLDWVCDGVNDCPDDSDEEGCPPRTCAPSQFQCGSGYCISQRWVCDGENDCEDGSDEANCAGSVPTCPSDEFRCRNGRCIPRAWRCDGVNDCADNSDEEDCTEHT
B10: SEQ ID NO 927 (designed binder)
chain: B9 chain with P2V, E5Q, I14L, R38L, N63Y, R99C, V103I, A107T, H118Y
B11: SEQ ID NO 864 (designed binder)
chain: B9 chain with E5K, R92Q, R96L, A97D, R99V, A107P, N109D
B12: SEQ ID NO 904 (designed binder)
chain: B9 chain with P2L, S3P, E5Q, P27A, D29N, E33T, P37T, A41L, P42S
B13: SEQ ID NO 922 (designed binder)
chain: CLPDMFRCGTRQCIPLDWVCDGVNDCADNSDETGCPTRTCLPSQFQCGSGYCISQRWVCDGENDCEDGSDEANCAGSVPTCPSDEFRCRNGRCIPRSWCCDGVNDCADNSDEEDCTEHT

In this test the target is T1, human IL-6. The experiment in a line: ELISA on IL-6 (also TF1 cell assay).
In the case of B1, the binding result is reported as “binds”.

Consider B2, for which the binding result is reported as “binds”. As for B3, the entry is “binds”; as for B4, “binds”; as for B5, “binds”.

For B6, the binding result is given as “binds”. In the case of B7 it was “binds”; in that of B8, “binds”; in that of B9, “binds”.

With B10, the binding result is “binds”. In the case of B11 it was “binds”; in that of B12, “binds”; in that of B13, “binds”.
